This note sets out measurements from article PMC2965115.

Protein sequences, listed by entry. Tags and fused reporters are not part of them.
UniProt O17695: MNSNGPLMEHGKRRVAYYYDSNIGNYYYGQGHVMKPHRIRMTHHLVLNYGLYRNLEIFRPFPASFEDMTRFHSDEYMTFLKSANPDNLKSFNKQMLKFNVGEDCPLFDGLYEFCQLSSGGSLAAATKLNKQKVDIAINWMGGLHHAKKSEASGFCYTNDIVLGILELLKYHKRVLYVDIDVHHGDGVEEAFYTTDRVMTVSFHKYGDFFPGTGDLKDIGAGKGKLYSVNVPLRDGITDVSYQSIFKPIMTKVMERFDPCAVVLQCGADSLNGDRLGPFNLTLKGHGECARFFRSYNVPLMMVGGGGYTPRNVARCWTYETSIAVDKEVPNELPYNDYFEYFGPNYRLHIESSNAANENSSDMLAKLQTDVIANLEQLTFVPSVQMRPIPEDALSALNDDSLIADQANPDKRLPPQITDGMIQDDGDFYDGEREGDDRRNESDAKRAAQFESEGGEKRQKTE
UniProt G5EBZ4: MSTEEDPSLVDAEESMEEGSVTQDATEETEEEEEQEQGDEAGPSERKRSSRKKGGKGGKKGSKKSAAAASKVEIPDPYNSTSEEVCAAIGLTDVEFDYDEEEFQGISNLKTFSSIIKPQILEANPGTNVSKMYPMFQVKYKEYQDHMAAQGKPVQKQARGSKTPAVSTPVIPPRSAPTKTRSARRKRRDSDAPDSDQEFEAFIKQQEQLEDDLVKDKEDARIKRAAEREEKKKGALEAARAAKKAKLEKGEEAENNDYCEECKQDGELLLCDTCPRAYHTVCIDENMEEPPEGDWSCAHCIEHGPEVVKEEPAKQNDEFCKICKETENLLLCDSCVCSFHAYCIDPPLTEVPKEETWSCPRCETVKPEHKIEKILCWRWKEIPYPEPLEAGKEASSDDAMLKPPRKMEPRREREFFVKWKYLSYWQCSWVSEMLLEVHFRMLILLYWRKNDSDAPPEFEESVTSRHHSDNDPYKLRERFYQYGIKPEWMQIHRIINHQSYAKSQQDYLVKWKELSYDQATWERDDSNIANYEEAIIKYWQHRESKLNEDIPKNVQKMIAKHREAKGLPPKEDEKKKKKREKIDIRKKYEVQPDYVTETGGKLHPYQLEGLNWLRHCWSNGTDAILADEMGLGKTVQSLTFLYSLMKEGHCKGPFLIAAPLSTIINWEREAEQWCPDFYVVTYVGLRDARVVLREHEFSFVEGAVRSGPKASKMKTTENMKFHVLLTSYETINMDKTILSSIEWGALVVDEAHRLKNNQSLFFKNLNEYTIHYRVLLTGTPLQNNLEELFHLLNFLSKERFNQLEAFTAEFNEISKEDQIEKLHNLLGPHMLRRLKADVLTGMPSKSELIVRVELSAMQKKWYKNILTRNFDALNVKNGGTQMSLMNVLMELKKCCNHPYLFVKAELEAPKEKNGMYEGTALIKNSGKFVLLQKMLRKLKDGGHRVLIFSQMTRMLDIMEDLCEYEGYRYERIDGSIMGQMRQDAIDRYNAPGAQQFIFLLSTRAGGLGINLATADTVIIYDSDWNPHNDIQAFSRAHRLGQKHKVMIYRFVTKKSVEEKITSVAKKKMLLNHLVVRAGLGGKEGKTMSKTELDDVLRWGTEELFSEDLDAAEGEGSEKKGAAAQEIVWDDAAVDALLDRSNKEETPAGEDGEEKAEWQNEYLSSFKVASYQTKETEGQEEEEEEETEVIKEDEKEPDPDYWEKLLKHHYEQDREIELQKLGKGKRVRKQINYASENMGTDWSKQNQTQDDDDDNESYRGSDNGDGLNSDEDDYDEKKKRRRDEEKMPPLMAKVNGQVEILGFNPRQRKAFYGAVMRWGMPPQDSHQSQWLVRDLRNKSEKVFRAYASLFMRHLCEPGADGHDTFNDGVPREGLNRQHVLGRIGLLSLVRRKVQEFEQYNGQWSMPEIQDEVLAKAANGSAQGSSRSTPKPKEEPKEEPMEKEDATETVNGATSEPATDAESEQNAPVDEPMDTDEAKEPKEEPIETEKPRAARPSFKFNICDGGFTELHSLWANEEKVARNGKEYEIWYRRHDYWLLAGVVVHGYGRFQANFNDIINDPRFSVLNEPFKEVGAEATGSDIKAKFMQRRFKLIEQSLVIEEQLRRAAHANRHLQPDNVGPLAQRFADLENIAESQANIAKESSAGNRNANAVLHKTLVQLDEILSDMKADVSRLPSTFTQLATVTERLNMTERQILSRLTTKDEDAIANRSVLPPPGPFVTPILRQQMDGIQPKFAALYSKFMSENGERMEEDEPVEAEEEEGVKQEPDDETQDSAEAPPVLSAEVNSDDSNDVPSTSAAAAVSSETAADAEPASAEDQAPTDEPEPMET
UniProt P90916: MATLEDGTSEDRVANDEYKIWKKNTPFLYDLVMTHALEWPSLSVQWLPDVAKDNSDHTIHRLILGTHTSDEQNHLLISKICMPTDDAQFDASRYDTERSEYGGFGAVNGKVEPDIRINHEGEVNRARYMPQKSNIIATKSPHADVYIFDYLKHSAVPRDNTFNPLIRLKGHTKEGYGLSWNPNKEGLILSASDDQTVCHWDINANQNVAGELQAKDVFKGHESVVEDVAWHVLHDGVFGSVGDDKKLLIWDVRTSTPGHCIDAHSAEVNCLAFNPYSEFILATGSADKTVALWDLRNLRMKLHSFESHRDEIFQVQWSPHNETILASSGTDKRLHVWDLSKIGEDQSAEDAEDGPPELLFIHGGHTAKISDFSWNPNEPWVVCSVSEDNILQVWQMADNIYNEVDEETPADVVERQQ
UniProt Q22516: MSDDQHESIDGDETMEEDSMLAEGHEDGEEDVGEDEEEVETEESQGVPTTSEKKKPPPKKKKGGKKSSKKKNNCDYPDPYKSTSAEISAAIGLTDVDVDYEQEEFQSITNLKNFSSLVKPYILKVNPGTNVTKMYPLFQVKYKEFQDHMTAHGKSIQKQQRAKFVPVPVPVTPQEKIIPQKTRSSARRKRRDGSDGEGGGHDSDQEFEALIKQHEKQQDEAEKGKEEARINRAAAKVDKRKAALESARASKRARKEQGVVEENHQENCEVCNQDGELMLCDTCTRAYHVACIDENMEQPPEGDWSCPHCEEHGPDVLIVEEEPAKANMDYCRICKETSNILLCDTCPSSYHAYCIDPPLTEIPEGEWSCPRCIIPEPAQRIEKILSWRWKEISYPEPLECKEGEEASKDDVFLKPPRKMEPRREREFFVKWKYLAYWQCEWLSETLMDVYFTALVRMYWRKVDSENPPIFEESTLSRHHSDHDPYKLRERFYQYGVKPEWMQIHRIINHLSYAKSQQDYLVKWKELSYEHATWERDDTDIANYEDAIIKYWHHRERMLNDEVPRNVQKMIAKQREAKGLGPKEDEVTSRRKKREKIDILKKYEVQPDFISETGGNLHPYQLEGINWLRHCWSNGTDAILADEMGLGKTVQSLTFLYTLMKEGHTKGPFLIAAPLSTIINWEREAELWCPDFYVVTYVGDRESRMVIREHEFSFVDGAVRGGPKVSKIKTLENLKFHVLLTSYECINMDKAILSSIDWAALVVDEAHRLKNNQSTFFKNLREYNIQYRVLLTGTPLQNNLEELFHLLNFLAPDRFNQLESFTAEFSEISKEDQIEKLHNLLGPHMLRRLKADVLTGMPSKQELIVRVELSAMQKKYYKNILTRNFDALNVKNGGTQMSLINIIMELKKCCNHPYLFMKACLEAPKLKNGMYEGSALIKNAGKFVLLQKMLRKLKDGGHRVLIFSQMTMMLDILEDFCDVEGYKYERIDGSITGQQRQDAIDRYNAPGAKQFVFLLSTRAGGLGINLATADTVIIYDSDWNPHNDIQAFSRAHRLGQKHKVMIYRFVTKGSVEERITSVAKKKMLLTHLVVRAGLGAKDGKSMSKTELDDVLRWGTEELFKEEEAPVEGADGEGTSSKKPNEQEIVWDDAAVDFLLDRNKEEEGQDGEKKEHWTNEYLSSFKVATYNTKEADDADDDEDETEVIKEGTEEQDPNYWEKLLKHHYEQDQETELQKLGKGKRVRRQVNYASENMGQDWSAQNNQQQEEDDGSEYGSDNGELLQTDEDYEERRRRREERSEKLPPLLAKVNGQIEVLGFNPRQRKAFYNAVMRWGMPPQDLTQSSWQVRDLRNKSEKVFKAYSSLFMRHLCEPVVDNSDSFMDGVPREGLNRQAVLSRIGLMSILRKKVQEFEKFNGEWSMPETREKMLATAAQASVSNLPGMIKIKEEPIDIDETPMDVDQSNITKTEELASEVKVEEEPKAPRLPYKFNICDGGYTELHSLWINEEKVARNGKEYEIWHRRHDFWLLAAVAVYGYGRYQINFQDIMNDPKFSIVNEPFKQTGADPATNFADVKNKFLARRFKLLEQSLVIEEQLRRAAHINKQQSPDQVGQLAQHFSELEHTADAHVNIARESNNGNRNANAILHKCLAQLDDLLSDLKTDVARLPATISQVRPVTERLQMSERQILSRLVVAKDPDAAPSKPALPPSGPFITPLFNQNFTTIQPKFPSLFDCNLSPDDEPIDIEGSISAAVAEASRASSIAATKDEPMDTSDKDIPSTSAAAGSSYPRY

Assay in all cases: co-IP; approximatively 1 mg of protein extract from mixed-stage worms with 1 µg of antibodies per reaction; anti-AFP mAb 3E6 for GFP-tagged proteins; immunoprecipitates analysed by Western blot
The target of experiment [1] is HDA-1 (C. elegans (endogenous in mixed-stage worms)) (UniProt O17695).
For experiment [2], the target named is LET-418 (C. elegans (endogenous in mixed-stage worms)) (UniProt G5EBZ4).
Another experiment addresses LIN-53::GFP (C. elegans) (UniProt P90916).
For experiment [3], the target named is T1, MEP-1 (C. elegans (endogenous in mixed-stage worms)) (UniProt Q21502).
T1 sequence: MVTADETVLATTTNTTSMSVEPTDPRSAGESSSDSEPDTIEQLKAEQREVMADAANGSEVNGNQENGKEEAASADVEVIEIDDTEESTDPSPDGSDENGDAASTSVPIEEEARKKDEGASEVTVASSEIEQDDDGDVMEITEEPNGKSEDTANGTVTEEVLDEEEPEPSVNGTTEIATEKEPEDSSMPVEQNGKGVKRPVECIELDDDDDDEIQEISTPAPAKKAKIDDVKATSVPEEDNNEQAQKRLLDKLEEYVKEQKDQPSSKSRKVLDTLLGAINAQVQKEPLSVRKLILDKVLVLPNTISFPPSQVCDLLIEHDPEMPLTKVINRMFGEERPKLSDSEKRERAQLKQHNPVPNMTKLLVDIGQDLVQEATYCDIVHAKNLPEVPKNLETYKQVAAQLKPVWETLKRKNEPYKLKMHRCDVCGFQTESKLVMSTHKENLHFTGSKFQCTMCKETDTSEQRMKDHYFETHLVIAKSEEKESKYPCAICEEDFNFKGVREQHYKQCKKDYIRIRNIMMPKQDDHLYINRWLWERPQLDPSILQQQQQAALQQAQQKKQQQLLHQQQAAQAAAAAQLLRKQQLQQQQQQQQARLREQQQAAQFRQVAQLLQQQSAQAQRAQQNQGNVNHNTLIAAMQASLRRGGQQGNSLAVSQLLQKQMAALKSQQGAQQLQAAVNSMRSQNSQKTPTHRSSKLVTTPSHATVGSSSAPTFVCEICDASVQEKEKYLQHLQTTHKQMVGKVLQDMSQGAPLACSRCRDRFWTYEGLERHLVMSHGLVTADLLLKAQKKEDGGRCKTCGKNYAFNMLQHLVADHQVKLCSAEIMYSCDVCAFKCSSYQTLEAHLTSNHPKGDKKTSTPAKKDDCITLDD

The target in another experiment is T2, EGL-27::GFP (C. elegans) (UniProt Q09228).
T2 sequence: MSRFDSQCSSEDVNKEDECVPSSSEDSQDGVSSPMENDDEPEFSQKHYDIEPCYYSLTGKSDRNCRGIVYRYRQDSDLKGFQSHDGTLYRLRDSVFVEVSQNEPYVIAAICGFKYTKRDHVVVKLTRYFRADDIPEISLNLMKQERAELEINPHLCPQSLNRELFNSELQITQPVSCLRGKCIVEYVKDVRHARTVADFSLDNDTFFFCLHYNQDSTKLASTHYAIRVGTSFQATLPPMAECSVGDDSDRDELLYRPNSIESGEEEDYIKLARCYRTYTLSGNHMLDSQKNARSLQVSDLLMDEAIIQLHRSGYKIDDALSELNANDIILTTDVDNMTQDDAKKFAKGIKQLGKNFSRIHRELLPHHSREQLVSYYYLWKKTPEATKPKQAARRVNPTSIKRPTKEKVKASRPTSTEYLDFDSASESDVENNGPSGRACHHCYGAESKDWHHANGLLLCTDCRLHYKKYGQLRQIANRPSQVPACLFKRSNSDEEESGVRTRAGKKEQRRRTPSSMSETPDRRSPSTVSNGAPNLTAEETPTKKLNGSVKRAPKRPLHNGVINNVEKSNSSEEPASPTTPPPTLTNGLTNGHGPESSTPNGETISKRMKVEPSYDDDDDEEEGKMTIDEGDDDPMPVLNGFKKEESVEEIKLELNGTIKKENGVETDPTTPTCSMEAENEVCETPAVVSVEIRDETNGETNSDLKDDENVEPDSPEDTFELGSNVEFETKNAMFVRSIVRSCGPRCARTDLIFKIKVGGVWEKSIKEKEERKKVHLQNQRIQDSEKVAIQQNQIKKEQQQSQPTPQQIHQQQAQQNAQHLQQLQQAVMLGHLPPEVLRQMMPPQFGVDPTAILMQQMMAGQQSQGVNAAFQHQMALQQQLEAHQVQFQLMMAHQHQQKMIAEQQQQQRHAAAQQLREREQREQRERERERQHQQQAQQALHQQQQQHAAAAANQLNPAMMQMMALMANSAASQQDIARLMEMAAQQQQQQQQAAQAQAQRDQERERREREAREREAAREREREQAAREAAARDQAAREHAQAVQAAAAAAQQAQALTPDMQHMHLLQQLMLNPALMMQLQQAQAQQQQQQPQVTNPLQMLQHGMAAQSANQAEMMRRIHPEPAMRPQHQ

Results are given in words; binding and its absence hold for the method and conditions named. In cells and extracts the contact can be indirect. Some results given as binding are weak or reduced against the parent protein; the word gives no strength. For part of these data: Sequences can lack the tags named with a protein.

With CHD-3 (from UniProt Q22516 1-1787), the binding entry in experiment [1] is on record as “binds”; in experiment [2], “no binding”; with LIN-53::GFP (C. elegans), “binds”; in experiment [3], “no binding”.
In the case of HDA-1 (from UniProt O17695 1-461), the binding result is given as “no binding” in the experiment with EGL-27::GFP (C. elegans), “binds” in experiment [2], “binds” with LIN-53::GFP (C. elegans) and “binds” in experiment [3].
For LET-418 (from UniProt G5EBZ4 1-1829), the binding entry with EGL-27::GFP (C. elegans) was “no binding”; with LIN-53::GFP (C. elegans), “binds”; in experiment [3], “binds”.
Consider LIN-53 (from UniProt P90916 1-417), for which, in experiment [2], the binding result is recorded as “binds”.
